Source: PubChem BioAssay AID1487 (National Center for Advancing Translational Sciences (NCATS), 2009)
Values joined by “and” are separate entries in the source; they are usually repeats but may differ in a detail not shown here. Identical values can stand only once. In all, about 200,000 compounds went through this assay and about 25 (0.01%) were called active. The shares of active, inactive and inconclusive entries below differ from those in the screen. Calls come from the whole dose curve; as a rule, active = well fitted inhibition curve with a large enough effect in the signal ratio, with a control signal flat (not every such curve was filed as active); inconclusive = small, poorly fitted or top-dose-only effect, or effect the other way, or a change in a side signal; inactive = flat fitted curve, though single readings scatter; the % refers to the signal ratio. A potency beside an inconclusive call is a rough fit, not a confirmed value.

Assay: qHTS Assay for Modulators of Lamin A Splicing
Conditions: HeLa LMNA splicing GFP/RFP minigene ratio, 48 h; ratio change, negative = inhibition: at 46.1 µM (top of the series) unless noted
Procedure, shortened: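 S3 HeLa stable clones carrying a lamin A-EGFP splicing minigene plus DsRed2 were seeded at 600 cells/well in Opti-MEM with 2% FBS, pin-dosed and incubated 48 h at 37°C. Acumen cytometry (488 nm) gave the GFP/RFP total-intensity ratio.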
% is set by controls: 0 for no effect and ±100 for the full control effect; potency is the fitted concentration of half-maximal effect.

Q: For `Cn1c(=O)n(CCCc2ccccc2)c(=O)c2c1nc1n2CCN1c1ccccc1`, which “ratio change, negative = inhibition” value is on record?
A: inactive: 3.22% [at 46 µM]

Q: With `CCOC(=O)N1CCc2c(sc(NCc3sccc3C)c2C(=O)Nc2ccccc2OCC)C1` as the compound, how does the ratio change, negative = inhibition read?
A: inconclusive: -32.6% [at 46 µM]

Q: With `CC1=CC(=O)C(C(C)C)=C/C1=N/OC(=O)c1cccc([N+](=O)[O-])c1` as the compound, how does the “ratio change, negative = inhibition” value read?
A: inactive: -9.84%

Q: Which “ratio change, negative = inhibition” value does the source give for `COCCOC(=O)c1[nH]c2c(c1C)C(=O)C(C(=O)OC)C(C)C2` (configuration not stated) here?
A: inactive: 3%

Q: Which ratio change, negative = inhibition does the source give for `Cn1c(-n2cccc2)c(-c2c(-c3ccc(F)cc3)[nH]c3c2c(=O)[nH]c(=O)n3C)c(=O)[nH]c1=O` here?
A: inconclusive: 6.88% [at 46 µM]

Q: With `Cc1cc(F)ccc1S(=O)(=O)Nc1ccccc1C(=O)NCc1cccnc1` as the compound, how does the ratio change, negative = inhibition read?
A: inconclusive: -12.2% [at 46 µM]

Q: With `c1csc(-c2nnsc2-c2nc3ccccc3[nH]2)c1` as the compound, how does the ratio change, negative = inhibition read?
A: inconclusive: 12.4%

Q: With `Cc1[nH]n(-c2nc(-c3cccc([N+](=O)[O-])c3)cs2)c(=O)c1C` as the compound, how does the Potency read?
A: inconclusive: 35.5 µM [inhibitor, single point]

Q: For `COc1ccc(CNc2ccnc(-c3ccc(C(=O)N(C)C)cc3)n2)c(OC)c1`, which ratio change, negative = inhibition is on record?
A: inconclusive: -9.77%

Q: Which “ratio change, negative = inhibition” value does the source give for `O=C(Cn1c(=O)ccc2cc(S(=O)(=O)N3CCCC3)ccc21)NCc1ccc(F)cc1` here?
A: inactive: 5.57% [at 46 µM]

Q: With `CCc1ccc(CNC(=O)Cc2c(C(=O)O)c(C)cn2C)cc1` as the compound, how does the ratio change, negative = inhibition read?
A: inconclusive: 30.6% [at 46 µM]

Q: For `O=C(Cc1cccs1)NNC(=S)NCc1ccco1`, which ratio change, negative = inhibition is on record?
A: inconclusive: 8.16% [at 46 µM]

Q: Which ratio change, negative = inhibition does the source give for `O=C(CN1CCCCC1)Nc1scc2c1c(=O)oc1ccccc12` here?
A: inconclusive: -7.96% [at 46 µM]

Q: With `COc1ccc(OCC(=O)OCC(=O)NCc2ccc(F)cc2)cc1` as the compound, how does the “ratio change, negative = inhibition” value read?
A: inactive: -2.98%

Q: With `Cc1onc(C(=O)N2CCN(c3ccccc3F)CC2)c1-c1ccccc1Cl` as the compound, how does the ratio change, negative = inhibition read?
A: inconclusive: -28.4%

Q: With `Cc1ccc(Nc2ccc(NCc3ccccc3)nn2)cc1C` as the compound, how does the “ratio change, negative = inhibition” value read?
A: inactive: -9.85%

Q: For `CSc1ncc2ncn(C3OC(CO)C(O)C3O)c2n1` (configuration not stated), which ratio change, negative = inhibition is on record?
A: inconclusive: 16.5% [at 46 µM]

Q: For `CC(C)CC(=O)NC(=S)N(Cc1ccccc1)Cc1ccccc1`, which ratio change, negative = inhibition is on record?
A: inconclusive: -3.87%

Q: Which “ratio change, negative = inhibition” value does the source give for `Cc1cc(C(=O)COC(=O)C2=NNC(=O)CC2)c(C)n1-c1ccccc1` here?
A: inactive: 7.43%

Q: For `O=C(N/N=C/c1ccc[nH]1)c1cc(-c2cccs2)nc2ccccc12`, which ratio change, negative = inhibition is on record?
A: inconclusive: -42.2% [at 46 µM]

Q: For `Cn1c(SCC(=O)Nc2nc3c(s2)CCCC3)nnc1-c1ccccc1`, which “ratio change, negative = inhibition” value is on record?
A: inactive: 11.7%

Q: Which Potency does the source give for `COc1ccccc1CNc1cc(-c2c(C)noc2C)ncn1` here?
A: inconclusive: 12.6 µM [inhibitor, partial curve]

Q: Which “ratio change, negative = inhibition” value does the source give for `CC(C)NC(=O)c1cc2ccccc2o1` here?
A: inactive: -9.04%

Q: With `CCCCc1ccc(Nc2ncnc3c2cnn3-c2ccc(C)cc2)cc1` as the compound, how does the “ratio change, negative = inhibition” value read?
A: inactive: -13.6% [at 46 µM]

Q: For `O=C(CSc1nnnn1-c1cccc2c1CCCC2)N1CCCCC1`, which ratio change, negative = inhibition is on record?
A: inconclusive: -31.1%

Q: For `CC1CCCC2(C1)NC(=S)N(c1ccccc1)N2` (configuration not stated), which ratio change, negative = inhibition is on record?
A: inconclusive: 37.2%

Q: With `COc1ccc(-c2cc3ccccc3n2CC(O)CN2CCOCC2)cc1` (configuration not stated) as the compound, how does the ratio change, negative = inhibition read?
A: inconclusive: 11.8%

Q: Which ratio change, negative = inhibition does the source give for `COc1ccc(C(Cl)=C(c2ccc(OC)cc2)c2ccc(OC)cc2)cc1` here?
A: inconclusive: 0.398% and inconclusive: -16.2%

Q: Which Potency does the source give for `Cc1oncc1C(=O)Nc1ccc(C(F)(F)F)cc1` here?
A: inconclusive: 14.1 µM [inhibitor, single point]

Q: With `O=C(Nc1nc(-c2ccc(Cl)s2)cs1)c1ccco1` as the compound, how does the ratio change, negative = inhibition read?
A: inconclusive: -30.6% [at 46 µM]

Q: Which “ratio change, negative = inhibition” value does the source give for `CCC(C)[C@@H](C(=O)NCC1CCC(C(=O)O)CC1)n1nnc2ccccc2c1=O` (some centres not stated) here?
A: inactive: 4.86%

Q: With `CCCCCCNC(=O)Nc1ccccc1` as the compound, how does the ratio change, negative = inhibition read?
A: inconclusive: 13.3%

Q: For `Cc1cccc(NC(=O)CN2C(=O)CCc3ccccc32)c1C`, which “ratio change, negative = inhibition” value is on record?
A: inactive: 8.57% [at 46 µM]

Q: With `CCOC(=O)/C(=N\Nc1ccccc1Cl)N(C)C1CCCCC1` as the compound, how does the ratio change, negative = inhibition read?
A: inconclusive: 32.6% [at 46 µM]

Q: For `O=C(c1ccccc1)c1ccc(C(=O)N2CCOCC2)cc1`, which “ratio change, negative = inhibition” value is on record?
A: inactive: 1.6%

Q: Which ratio change, negative = inhibition does the source give for `CCN(CC)C(=O)Oc1ccnc2cc(Cl)ccc12` here?
A: inconclusive: -11.8% [at 46 µM]

Q: For `O=C(O)c1cccnc1Nc1cccc(C(F)(F)F)c1`, which ratio change, negative = inhibition is on record?
A: inconclusive: -3.59% and inconclusive: 32%

Q: For `O=[N+]([O-])c1ccc(C(c2sc3nc(-c4ccco4)nn3c2O)N2CCC3(CC2)OCCO3)cc1` (configuration not stated), which “ratio change, negative = inhibition” value is on record?
A: inactive: 7.74% [at 46 µM]

Q: With `N#Cc1ccsc1NC(=O)CN1CCN(Cc2ccccc2)CC1` as the compound, how does the ratio change, negative = inhibition read?
A: inconclusive: -11.6% [at 46 µM]

Q: Which ratio change, negative = inhibition does the source give for `O=C(NCc1ccco1)c1cc(-c2ccc(F)cc2)on1` here?
A: inconclusive: 12.1%

Q: For `CCOC1(OCC)C(c2ccc(Cl)cc2)C(C#N)(C#N)C1(OCC)OCC` (configuration not stated), which Potency is on record?
A: inconclusive: 15.8 µM [inhibitor, single point]

Q: Which ratio change, negative = inhibition does the source give for `COc1ccc(C(=O)Nc2ccc(-c3cc(C(F)(F)F)nn3-c3ccccc3)cc2)cc1OC` here?
A: inconclusive: -24.6% [at 46 µM]
